Measured values from US20240000786A1, “COMPOSITION FOR ENHANCING INTRA-CELLULAR NITRIC OXIDE GENERATION” (INSTITUTE OF LIFE SCIENCES, priority 2020, published 2024).
Results are given in words; binding and its absence hold for the method and conditions named. Some binding calls cover weakened binding; strength is not graded here.

By UniProt entry, the sequences of proteins in these tests, tags left out. Where a name states a change or a piece, a line headed by the entry shows the natural chain unless it says otherwise.
UniProt P35228: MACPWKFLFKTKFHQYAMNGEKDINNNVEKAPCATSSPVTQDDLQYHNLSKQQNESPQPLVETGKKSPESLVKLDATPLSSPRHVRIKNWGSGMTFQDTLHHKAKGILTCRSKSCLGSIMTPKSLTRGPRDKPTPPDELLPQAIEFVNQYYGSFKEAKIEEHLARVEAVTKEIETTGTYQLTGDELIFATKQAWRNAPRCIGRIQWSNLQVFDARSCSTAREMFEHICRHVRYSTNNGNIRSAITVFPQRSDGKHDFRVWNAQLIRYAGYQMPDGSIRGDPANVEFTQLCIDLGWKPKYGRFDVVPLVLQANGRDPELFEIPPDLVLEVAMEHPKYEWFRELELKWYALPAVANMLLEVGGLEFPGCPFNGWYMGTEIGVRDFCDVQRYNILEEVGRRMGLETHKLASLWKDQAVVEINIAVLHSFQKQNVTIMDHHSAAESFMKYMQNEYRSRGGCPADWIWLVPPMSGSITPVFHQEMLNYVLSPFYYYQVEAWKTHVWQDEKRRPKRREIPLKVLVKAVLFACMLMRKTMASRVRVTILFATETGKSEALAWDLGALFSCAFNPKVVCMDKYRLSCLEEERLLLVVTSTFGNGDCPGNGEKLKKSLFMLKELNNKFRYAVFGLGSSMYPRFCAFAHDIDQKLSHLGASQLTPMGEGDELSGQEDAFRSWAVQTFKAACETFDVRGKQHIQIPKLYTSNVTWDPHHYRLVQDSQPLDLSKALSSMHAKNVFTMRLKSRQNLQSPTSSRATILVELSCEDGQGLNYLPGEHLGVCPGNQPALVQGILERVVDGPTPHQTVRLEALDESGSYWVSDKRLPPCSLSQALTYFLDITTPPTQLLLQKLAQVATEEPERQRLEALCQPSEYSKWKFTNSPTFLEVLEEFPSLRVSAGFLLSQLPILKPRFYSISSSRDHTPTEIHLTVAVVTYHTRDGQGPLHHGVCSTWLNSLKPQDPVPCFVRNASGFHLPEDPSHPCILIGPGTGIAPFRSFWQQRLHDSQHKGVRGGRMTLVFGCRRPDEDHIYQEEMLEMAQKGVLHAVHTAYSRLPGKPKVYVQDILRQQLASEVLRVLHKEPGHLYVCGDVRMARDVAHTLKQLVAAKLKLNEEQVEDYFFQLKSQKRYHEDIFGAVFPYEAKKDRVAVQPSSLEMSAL

How the values were obtained:
[1] = target: T1, recombinant human iNOS oxygenase domain (human, UniProt P35228 82-505); assay: SPR, iNOS immobilised, NOSIP 125 nM (FIG. 2(a))
T1 construct: It was cloned in pET22b, expressed in E. coli BL21 (DE3) and purified on Ni-NTA and by gel filtration; A His tag is implied but never described; In SPR it was immobilised on a GLC chip by amine coupling; also called riNOS; r iNOS

[2] = target: T1, recombinant human iNOS oxygenase domain; assay: SPR, iNOS immobilised, rNOSIP 250 nM as analyte, no small molecule
[3] = target: T1, recombinant human iNOS oxygenase domain; assay: SPR, iNOS immobilised, NOSIP 1000 to 62.5 nM pre-incubated with 250 nM iNOS peptide PP2 [b]
[4] = target: T1, recombinant human iNOS oxygenase domain; assay: SPR (ProteOn XPR36), iNOS immobilised on a GLC chip, NOSIP 125 nM as analyte, no peptide [a]

Measured: binding

B1: recombinant Nitric oxide synthase interacting protein (NOSIP) (other)
chain: HMTRHGKNCTAGAVYTYHEKKKDTAASGYGTQNIRLSRDAVKDFDCCCLSLQPCHDPVVTPDGYLYEREAILEYILHQKKEIARQMKAYEKQRGTRREEQKELQRAASQDHVRGFLEKESAIVSRPLNPFTAKALSGTSPDDVQPGPSVGPPSKDKDKVLPSFWIPSLTPEAKATKLEKPSRTVTCPMSGKPLRMSDLTPVHFTPLDSSVDRVGLITRSERYVCAVTRDSLSNATPCAVLRPSGAVVTLECVEKLIRKDMVDPVTGDKLTDRDIIVLQRGGTGFAGSGVKLQAEKSRPVMQALE
notes: It was synthesized by GenScript, cloned in pET22b, expressed in E. coli BL21 (DE3) and purified on Ni-NTA and by gel filtration; A His tag is implied but never described; also called rNOSIP; recombinant NOSIP
binds: [1] | [2] | [3] | [4]
